# The shares of active, inactive and inconclusive entries below differ from those in the screen. A potency beside an inconclusive call is a rough fit, not a confirmed value. The source made the active and inactive calls. How the source made its calls: active means hit-call score of the fitted dose curve at least 0.9, where 1 is the maximum; inconclusive means response in the unintended direction; inactive means score below 0.9.
# Sequences of proteins named here, by UniProt entry; tags and fusion partners are left off. A change or cut given only in a name is not applied to a line headed by its entry.
# UniProt Q96RI1: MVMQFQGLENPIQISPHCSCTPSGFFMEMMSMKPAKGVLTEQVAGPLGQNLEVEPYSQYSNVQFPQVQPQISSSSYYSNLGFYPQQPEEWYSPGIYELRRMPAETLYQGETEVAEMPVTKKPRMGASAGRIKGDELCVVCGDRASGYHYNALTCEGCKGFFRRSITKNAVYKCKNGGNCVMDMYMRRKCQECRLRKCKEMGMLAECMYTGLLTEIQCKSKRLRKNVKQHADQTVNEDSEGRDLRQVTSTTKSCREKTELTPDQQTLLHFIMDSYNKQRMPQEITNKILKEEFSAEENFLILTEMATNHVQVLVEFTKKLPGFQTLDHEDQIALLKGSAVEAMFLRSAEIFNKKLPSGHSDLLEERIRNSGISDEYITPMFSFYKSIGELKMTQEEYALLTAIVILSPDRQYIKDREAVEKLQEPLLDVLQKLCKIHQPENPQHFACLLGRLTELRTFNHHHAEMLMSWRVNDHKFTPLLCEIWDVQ
# Key:
# [1] = target: Bile acid receptor (Homo sapiens) (UniProt Q96RI1); experiment: OT_FXR_FXRSRC1_0480: Odyssey Thera (OT) 8-hour HEK293T Protein-Complementation Assay for Farnesoid X receptor/SRC-1 Co-activator (AID 2283383)
# In short: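 HEK293T protein-fragment complementation assay: FXR and SRC-1 coactivator are fused to reporter fragments, and their interaction restores a fluorescent reporter. Readout was taken 8 h after dosing, with gain of signal fit relative to DMSO.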
# [2] = target: Bile acid receptor (Homo sapiens) (UniProt Q96RI1); experiment: OT_FXR_FXRSRC1_1440: Odyssey Thera (OT) 24-hour HEK293T Protein-Complementation Assay for Farnesoid X receptor/SRC-1 Co-activator (AID 2283384)
# In short: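 HEK293T cells, 24 h after chemical dosing. FXR–SRC-1 coactivator interaction read as fluorescence from protein-fragment complementation of a split reporter. Gain of signal fitted against DMSO baseline.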
smiles,measurement,setting,value
COC(=O)CCCC(=O)OC,AC50,[1],inconclusive: 50 µM
CCc1nn(C2CCCCC2)c2cc(C3(C#N)CCC(C(=O)O)CC3)ccc12 (centres undefined),AC50,[1],active: 23.6 µM
same,AC50,[2],active: 41.3 µM
CC(C)(C)c1csc(-c2cc3cc(OCc4ccccc4CC(=O)O)ccc3o2)n1,outcome,[1],inactive
CC(O)COc1ccccc1 (centres undefined),AC50,[1],inconclusive: 9.92 µM
same,AC50,[2],inconclusive: 20 µM
CCCCCC1CCC(=O)O1 (centres undefined),outcome,[1],inactive
same,AC50,[2],inconclusive: 11.4 µM
O=C1NC(=O)c2ccccc21,outcome,[1],inactive
CCOCCO,AC50,[1],inconclusive: 50 µM
same,AC50,[2],inconclusive: 15.3 µM
COCC(C)OCC(C)O (centres undefined),AC50,[1],inconclusive: 50 µM
CCCCOC(=O)[C@H](C)O,AC50,[1],inconclusive: 0.03 µM
same,AC50,[2],inconclusive: 1.29 µM
CCCOCCO,AC50,[1],inconclusive: 47.5 µM
Cc1[nH]nc2c1N=C(c1ccccc1Cl)c1cc([N+](=O)[O-])ccc1N2,AC50,[1],active: 1.06 µM
CC(O)CN(CCN(CC(C)O)CC(C)O)CC(C)O (centres undefined),AC50,[1],inconclusive: 50 µM
O=C1CCCCCN1,outcome,[1],inactive
same,outcome,[2],inactive
CN(C)CCCN1c2ccccc2Sc2ccc(Cl)cc21,AC50,[1],inconclusive: 22.3 µM
same,AC50,[2],inconclusive: 23 µM
COC(=O)c1ccccc1C,AC50,[1],inconclusive: 50 µM
same,AC50,[2],inconclusive: 9.92 µM
CC1CC(O)CC(C)(C)C1 (centres undefined),AC50,[1],inconclusive: 30.5 µM
same,outcome,[2],inactive
CCCCOC(=O)CCCCCCCC(=O)OCCCC,outcome,[1],inactive
same,AC50,[2],inconclusive: 9.92 µM
Fc1ccccc1[C@@H](F)COC1CCC(Nc2ncnc3[nH]ncc23)CC1 (some centres undefined),AC50,[1],inconclusive: 54.9 µM
same,AC50,[2],inconclusive: 32.9 µM

# Retrieved one by one from the entries so far (two):
smiles,measurement,setting,value
O=C1CCCCCN1,outcome,[1],inactive
CN(C)CCCN1c2ccccc2Sc2ccc(Cl)cc21,AC50,[1],inconclusive: 22.3 µM

# From PubChem BioAssay (EPA / NIEHS)
